Protein sequences, listed by entry. Tags and fused reporters are not part of them. Residues count along the entry.
UniProt P02649, residues 19-317: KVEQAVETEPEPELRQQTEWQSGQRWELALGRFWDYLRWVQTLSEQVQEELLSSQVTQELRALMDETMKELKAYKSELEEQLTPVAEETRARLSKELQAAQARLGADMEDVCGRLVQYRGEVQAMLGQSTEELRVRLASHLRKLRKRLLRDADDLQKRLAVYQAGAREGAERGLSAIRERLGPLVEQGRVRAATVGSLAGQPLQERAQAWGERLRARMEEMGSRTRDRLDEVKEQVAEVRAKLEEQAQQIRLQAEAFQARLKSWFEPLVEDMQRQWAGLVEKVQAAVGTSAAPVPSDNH
UniProt P21796: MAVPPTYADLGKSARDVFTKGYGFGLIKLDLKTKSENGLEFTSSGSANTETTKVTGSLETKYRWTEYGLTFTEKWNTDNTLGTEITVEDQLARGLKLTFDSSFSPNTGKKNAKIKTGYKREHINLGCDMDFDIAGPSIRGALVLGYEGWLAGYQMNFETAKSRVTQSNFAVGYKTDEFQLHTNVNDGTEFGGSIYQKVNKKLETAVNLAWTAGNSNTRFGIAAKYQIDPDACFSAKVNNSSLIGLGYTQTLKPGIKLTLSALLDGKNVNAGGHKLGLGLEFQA

According to paper PMC11476584:

B1: Mitochondrial import receptor subunit TOM40 (TOMM40) (protein, UniProt O96008 1-361)
chain: MGNVLAASSPPAGPPPPPAPALVGLPPPPPSPPGFTLPPLGGSLGAGTSTSRSSERTPGAATASASGAAEDGACGCLPNPGTFEECHRKCKELFPIQMEGVKLTVNKGLSNHFQVNHTVALSTIGESNYHFGVTYVGTKQLSPTEAFPVLVGDMDNSGSLNAQVIHQLGPGLRSKMAIQTQQSKFVNWQVDGEYRGSDFTAAVTLGNPDVLVGSGILVAHYLQSITPCLALGGELVYHRRPGEEGTVMSLAGKYTLNNWLATVTLGQAGMHATYYHKASDQLQVGVEFEASTRMQDTSVSFGYQLDLPKANLLFKGSVDSNWIVGATLEKKLPPLPLTLALGAFLNHRKNKFQCGFGLTIG
B2: Lon protease (LONP1) (enzyme, UniProt P36776 68-959)
chain: FWEASSRGGGAFSGGEDASEGGAEEGAGGAGGSAGAGEGPVITALTPMTIPDVFPHLPLIAITRNPVFPRFIKIIEVKNKKLVELLRRKVRLAQPYVGVFLKRDDSNESDVVESLDEIYHTGTFAQIHEMQDLGDKLRMIVMGHRRVHISRQLEVEPEEPEAENKHKPRRKSKRGKKEAEDELSARHPAELAMEPTPELPAEVLMVEVENVVHEDFQVTEEVKALTAEIVKTIRDIIALNPLYRESVLQMMQAGQRVVDNPIYLSDMGAALTGAESHELQDVLEETNIPKRLYKALSLLKKEFELSKLQQRLGREVEEKIKQTHRKYLLQEQLKIIKKELGLEKDDKDAIEEKFRERLKELVVPKHVMDVVDEELSKLGLLDNHSSEFNVTRNYLDWLTSIPWGKYSNENLDLARAQAVLEEDHYGMEDVKKRILEFIAVSQLRGSTQGKILCFYGPPGVGKTSIARSIARALNREYFRFSVGGMTDVAEIKGHRRTYVGAMPGKIIQCLKKTKTENPLILIDEVDKIGRGYQGDPSSALLELLDPEQNANFLDHYLDVPVDLSKVLFICTANVTDTIPEPLRDRMEMINVSGYVAQEKLAIAERYLVPQARALCGLDESKAKLSSDVLTLLIKQYCRESGVRNLQKQVEKVLRKSAYKIVSGEAESVEVTPENLQDFVGKPVFTVERMYDVTPPGVVMGLAWTAMGGSTLFVETSLRRPQDKDAKGDKDGSLEVTGQLGEVMKESARIAYTFARAFLMQHAPANDYLVTSHIHLHVPEGATPKDGPSAGCTIVTALLSLAMGRPVRQNLAMTGEVSLTGKILPVGGIKEKTIAAKRAGVTCIVLPAENKKDFYDLAAFITEGLEVHFVEHYREIFDIAFPDEQAEALAVER

What follows are molecules tested against Apolipoprotein E3 (APOE3), overexpressed in transfected Huh7 cells (human) (UniProt P02649) (assay: affinity purification with mass spectrometry; APOE precipitated with anti-APOE antibody (sc-13521) and Protein G Sepharose, overnight at 4 °C, from lysates of unmodified, mock-, APOE3- and APOE4-transfected Huh7 cells; hits significant and at least twofold more abundant, compared with unmodified cells).

Row | binding | Molecule
1 | binds | Voltage-dependent anion-selective channel 1 (VDAC1) (from UniProt P21796 1-283)
2 | binds | B1
3 | binds | B2

These are yes or no findings as the source states them, for the method shown. In cells and extracts the contact can be indirect. These calls come from enrichment with a bait or labelling near it, and not all partners need be listed.
